Test [1] concerns the target T1, FLAG-tagged EB1 (Drosophila) (UniProt Q9XZ57).
T1 sequence: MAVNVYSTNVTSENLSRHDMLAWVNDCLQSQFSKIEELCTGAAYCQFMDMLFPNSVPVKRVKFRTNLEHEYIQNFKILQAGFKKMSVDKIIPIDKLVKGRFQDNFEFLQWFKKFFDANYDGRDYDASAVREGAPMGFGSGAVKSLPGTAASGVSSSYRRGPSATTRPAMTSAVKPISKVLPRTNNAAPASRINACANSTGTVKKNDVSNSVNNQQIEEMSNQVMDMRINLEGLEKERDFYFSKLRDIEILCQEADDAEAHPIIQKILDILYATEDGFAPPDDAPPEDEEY
Kind of test: co-IP.

In test [2] the target is GST-KIF3BT (GST-tagged tail of human KIF3B) (human). Kind of test: pull-down.
Test [3] deals with GST-KIF3AT (GST-tagged tail of human KIF3A) (human). Kind of test: pull-down.
The target in test [4] is GST-tagged KLP68D tail fragment (Drosophila). Description: pull-down.

The text below walks through data of doi:10.1101/2024.09.10.612170.

These are yes or no findings as the source states them, for the method shown. In cells and extracts the contact can be indirect. For some of these results: A result given as binding can be weak or reduced; the word gives no strength. Where a sequence is shown, tags or fusion partners need not be part of it.

In the case of “tail-less KLP68DΔT:YFP (Drosophila) (domain or fragment)”, the binding result in test [1] was “no binding”.

B1: EB1:GFP (End-binding protein 1 with GFP) (protein, UniProt Q9XZ57 1-290)
chain: T1 sequence
In the case of B1, the values for the binding result in test [2], in test [3] and in test [4] were “no binding”, “no binding” and “binds”, respectively.
